Source: patent publication US11051513B2, “Pyridone compounds and agricultural and horticultural fungicides containing the same as active ingredients” (MITSUI CHEMICALS AGRO, INC., priority 2017, dated 2021)
Some entries share one result that the patent states for a list of compounds.

Assays:
[1] = test system: Colletotrichum orbiculare; assay: Test Example H: Anthracnose on cucumber; conditions: 250 ppm sprayed (2.5 ml/pot) on cucumber (Sagami Hanjiro); disease development 6 to 10 days after inoculation
Puccinia recondita = assay: Test Example E: Brown rust on wheat; format: in vivo; conditions: 250 ppm sprayed (2.5 ml/pot) on wheat (Norin 61); disease development 7 to 10 days after inoculation
Botrytis cinerea = assay: Test Example B: Gray mold on tomato; conditions: 250 ppm sprayed (2.5 ml/pot) on tomato (Oogata Fukuju); disease development 2 to 3 days after inoculation
Alternaia brassicicola = assay: Test Example C: Alternaria sooty spot on cabbage; conditions: 250 ppm sprayed (2.5 ml/pot) on cabbage (Shikidori); disease development 2 to 3 days after inoculation
Magnaporthe grisea = format: in vivo; conditions: 250 ppm sprayed (2.5 ml/pot) on rice (Sachikaze); disease development 6 to 10 days after inoculation
[2] = test system: Blumeria graminis f. sp. hordei; assay: Test Example D: Powdery mildew on barley; conditions: 250 ppm sprayed (2.5 ml/pot) on barley (Akashinriki); disease development 6 to 10 days after inoculation

Measured: control value

COc1ccc(-c2c(-c3cc(F)cc(F)c3Br)cc(Br)c(=O)n2C)cc1 [compound 262]
> 50%: [1] | Puccinia recondita | Botrytis cinerea | Alternaia brassicicola | Magnaporthe grisea | [2]

O=c1c(I)cc(-c2cc(F)ccc2Br)c(-c2ccc(F)cc2)n1CC(F)F [compound 532]
> 50%: [1] | Puccinia recondita | Botrytis cinerea | Alternaia brassicicola | Magnaporthe grisea | [2]

COc1cccc(-c2ccc(=O)n(C)c2-c2ccc(F)cc2)c1Cl [compound 99]
> 50%: [1] | Puccinia recondita | Botrytis cinerea | Alternaia brassicicola | Magnaporthe grisea | [2]

O=c1ccc(-c2cc(F)cc(F)c2Cl)c(-c2ccccc2)n1CC(F)F [compound 69]
> 50%: [1] | Puccinia recondita | Botrytis cinerea | Alternaia brassicicola | Magnaporthe grisea | [2]

CCn1c(-c2ccccc2)c(-c2cccc(OC)c2Cl)ccc1=O [compound 104]
> 50%: [1] | Puccinia recondita | Botrytis cinerea | Alternaia brassicicola | Magnaporthe grisea | [2]

C=CCOc1ccc(-c2c(-c3cc(F)cc(F)c3Cl)cc(Cl)c(=O)n2CC)cc1 [compound 208]
> 50%: [1] | Puccinia recondita | Botrytis cinerea | Alternaia brassicicola | Magnaporthe grisea | [2]

Cn1c(-c2ccc(F)cc2)c(-c2cccc(F)c2Cl)ccc1=O [compound 58]
> 50%: [1] | Puccinia recondita | Botrytis cinerea | Alternaia brassicicola | Magnaporthe grisea | [2]

Cc1ccccc1-c1cc(Cl)c(=O)n(CC(F)F)c1-c1ccccc1 [compound 493]
> 50%: [1] | Puccinia recondita | Botrytis cinerea | Alternaia brassicicola | Magnaporthe grisea | [2]

Cn1c(-c2ccccc2)c(-c2cc(F)cc(F)c2Cl)cc(Br)c1=O [compound 22]
> 50%: [1] | Puccinia recondita | Botrytis cinerea | Alternaia brassicicola | Magnaporthe grisea | [2]

O=c1ccc(-c2cc(F)ccc2Br)c(-c2ccc(F)cc2)n1CC(F)F [compound 512]
> 50%: [1] | Puccinia recondita | Botrytis cinerea | Alternaia brassicicola | Magnaporthe grisea | [2]

CCn1c(-c2ccc(F)cc2)c(-c2cc(F)ccc2Cl)cc(Cl)c1=O [compound 6]
> 50%: [1] | Puccinia recondita | Botrytis cinerea | Alternaia brassicicola | Magnaporthe grisea | [2]

CCn1c(-c2ccc(F)cc2)c(-c2cccc(F)c2Cl)cc(Cl)c1=O [compound 49]
> 50%: [1] | Puccinia recondita | Botrytis cinerea | Alternaia brassicicola | Magnaporthe grisea | [2]

O=c1c(Br)cc(-c2ccccc2Br)c(-c2ccc(F)cc2)n1CC(F)F [compound 522]
> 50%: [1] | Puccinia recondita | Botrytis cinerea | Alternaia brassicicola | Magnaporthe grisea | [2]

O=c1c(Cl)cc(-c2ccc(F)cc2Cl)c(-c2ccc(F)cc2)n1CC(F)F [compound 498]
> 50%: [1] | Puccinia recondita | Botrytis cinerea | Alternaia brassicicola | Magnaporthe grisea | [2]
